24 targets from the supplement of paper PMC10849652 can be followed below.

By UniProt entry, the sequences of proteins in these tests, tags left out. Where a name states a change or a piece, a line headed by the entry shows the natural chain unless it says otherwise.
UniProt O75419: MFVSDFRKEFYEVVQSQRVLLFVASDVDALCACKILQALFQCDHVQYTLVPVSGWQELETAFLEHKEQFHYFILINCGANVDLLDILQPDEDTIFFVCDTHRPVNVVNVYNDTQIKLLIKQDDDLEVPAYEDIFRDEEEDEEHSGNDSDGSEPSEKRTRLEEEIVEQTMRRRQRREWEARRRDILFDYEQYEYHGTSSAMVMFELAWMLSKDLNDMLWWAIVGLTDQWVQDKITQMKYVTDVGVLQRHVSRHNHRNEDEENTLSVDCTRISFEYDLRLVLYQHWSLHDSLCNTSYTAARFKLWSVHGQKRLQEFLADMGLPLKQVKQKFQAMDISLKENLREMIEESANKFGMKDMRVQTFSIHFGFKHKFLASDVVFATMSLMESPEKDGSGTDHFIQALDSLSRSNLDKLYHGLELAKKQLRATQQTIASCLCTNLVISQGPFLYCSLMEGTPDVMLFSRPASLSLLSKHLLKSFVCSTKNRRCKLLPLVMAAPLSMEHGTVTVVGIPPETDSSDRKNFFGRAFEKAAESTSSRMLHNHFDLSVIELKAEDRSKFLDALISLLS
UniProt P17676: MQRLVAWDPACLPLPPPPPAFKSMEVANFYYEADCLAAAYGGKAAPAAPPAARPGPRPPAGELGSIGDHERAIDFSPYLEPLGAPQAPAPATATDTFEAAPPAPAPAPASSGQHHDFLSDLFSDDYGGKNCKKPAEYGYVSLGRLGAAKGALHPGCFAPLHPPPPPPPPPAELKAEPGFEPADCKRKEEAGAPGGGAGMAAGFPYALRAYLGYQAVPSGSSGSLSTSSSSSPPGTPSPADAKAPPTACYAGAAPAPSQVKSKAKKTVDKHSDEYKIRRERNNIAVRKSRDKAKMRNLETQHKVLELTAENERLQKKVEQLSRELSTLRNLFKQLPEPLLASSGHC
UniProt Q86X02: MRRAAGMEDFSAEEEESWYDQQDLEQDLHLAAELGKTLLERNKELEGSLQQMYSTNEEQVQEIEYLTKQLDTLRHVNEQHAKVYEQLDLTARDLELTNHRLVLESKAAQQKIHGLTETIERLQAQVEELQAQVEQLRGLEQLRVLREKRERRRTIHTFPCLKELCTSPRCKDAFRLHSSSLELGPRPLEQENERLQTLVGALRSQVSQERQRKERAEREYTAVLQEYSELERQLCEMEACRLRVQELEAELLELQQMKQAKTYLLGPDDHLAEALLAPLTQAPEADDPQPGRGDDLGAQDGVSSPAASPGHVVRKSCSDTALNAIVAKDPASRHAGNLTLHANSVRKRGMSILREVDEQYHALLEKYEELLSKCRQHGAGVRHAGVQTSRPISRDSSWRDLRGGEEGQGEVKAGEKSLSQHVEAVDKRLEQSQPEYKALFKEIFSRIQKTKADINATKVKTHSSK
UniProt Q01850: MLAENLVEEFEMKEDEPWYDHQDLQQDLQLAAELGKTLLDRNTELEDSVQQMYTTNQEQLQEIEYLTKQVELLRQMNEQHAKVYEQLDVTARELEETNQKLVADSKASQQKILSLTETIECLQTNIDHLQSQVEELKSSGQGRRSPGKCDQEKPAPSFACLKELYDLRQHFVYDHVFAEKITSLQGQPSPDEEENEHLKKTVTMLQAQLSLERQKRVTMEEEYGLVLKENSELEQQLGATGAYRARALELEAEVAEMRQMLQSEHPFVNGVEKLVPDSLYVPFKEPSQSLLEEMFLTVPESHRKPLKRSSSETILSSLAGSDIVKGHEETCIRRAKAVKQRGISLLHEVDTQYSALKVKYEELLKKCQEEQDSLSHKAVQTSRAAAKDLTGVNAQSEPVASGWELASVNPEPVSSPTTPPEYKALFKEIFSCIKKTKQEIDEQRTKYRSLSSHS
UniProt Q53EZ4: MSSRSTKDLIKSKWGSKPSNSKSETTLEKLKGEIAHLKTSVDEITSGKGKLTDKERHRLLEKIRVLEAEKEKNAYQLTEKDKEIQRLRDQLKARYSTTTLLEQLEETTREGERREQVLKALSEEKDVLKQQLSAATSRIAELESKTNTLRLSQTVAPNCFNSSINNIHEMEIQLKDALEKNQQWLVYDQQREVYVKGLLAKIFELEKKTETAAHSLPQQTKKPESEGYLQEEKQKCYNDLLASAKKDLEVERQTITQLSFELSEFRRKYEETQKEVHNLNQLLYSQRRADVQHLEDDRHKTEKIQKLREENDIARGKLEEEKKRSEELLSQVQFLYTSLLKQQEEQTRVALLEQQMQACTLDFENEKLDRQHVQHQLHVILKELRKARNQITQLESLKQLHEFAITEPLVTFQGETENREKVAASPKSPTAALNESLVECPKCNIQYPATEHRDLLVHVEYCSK
UniProt Q02224: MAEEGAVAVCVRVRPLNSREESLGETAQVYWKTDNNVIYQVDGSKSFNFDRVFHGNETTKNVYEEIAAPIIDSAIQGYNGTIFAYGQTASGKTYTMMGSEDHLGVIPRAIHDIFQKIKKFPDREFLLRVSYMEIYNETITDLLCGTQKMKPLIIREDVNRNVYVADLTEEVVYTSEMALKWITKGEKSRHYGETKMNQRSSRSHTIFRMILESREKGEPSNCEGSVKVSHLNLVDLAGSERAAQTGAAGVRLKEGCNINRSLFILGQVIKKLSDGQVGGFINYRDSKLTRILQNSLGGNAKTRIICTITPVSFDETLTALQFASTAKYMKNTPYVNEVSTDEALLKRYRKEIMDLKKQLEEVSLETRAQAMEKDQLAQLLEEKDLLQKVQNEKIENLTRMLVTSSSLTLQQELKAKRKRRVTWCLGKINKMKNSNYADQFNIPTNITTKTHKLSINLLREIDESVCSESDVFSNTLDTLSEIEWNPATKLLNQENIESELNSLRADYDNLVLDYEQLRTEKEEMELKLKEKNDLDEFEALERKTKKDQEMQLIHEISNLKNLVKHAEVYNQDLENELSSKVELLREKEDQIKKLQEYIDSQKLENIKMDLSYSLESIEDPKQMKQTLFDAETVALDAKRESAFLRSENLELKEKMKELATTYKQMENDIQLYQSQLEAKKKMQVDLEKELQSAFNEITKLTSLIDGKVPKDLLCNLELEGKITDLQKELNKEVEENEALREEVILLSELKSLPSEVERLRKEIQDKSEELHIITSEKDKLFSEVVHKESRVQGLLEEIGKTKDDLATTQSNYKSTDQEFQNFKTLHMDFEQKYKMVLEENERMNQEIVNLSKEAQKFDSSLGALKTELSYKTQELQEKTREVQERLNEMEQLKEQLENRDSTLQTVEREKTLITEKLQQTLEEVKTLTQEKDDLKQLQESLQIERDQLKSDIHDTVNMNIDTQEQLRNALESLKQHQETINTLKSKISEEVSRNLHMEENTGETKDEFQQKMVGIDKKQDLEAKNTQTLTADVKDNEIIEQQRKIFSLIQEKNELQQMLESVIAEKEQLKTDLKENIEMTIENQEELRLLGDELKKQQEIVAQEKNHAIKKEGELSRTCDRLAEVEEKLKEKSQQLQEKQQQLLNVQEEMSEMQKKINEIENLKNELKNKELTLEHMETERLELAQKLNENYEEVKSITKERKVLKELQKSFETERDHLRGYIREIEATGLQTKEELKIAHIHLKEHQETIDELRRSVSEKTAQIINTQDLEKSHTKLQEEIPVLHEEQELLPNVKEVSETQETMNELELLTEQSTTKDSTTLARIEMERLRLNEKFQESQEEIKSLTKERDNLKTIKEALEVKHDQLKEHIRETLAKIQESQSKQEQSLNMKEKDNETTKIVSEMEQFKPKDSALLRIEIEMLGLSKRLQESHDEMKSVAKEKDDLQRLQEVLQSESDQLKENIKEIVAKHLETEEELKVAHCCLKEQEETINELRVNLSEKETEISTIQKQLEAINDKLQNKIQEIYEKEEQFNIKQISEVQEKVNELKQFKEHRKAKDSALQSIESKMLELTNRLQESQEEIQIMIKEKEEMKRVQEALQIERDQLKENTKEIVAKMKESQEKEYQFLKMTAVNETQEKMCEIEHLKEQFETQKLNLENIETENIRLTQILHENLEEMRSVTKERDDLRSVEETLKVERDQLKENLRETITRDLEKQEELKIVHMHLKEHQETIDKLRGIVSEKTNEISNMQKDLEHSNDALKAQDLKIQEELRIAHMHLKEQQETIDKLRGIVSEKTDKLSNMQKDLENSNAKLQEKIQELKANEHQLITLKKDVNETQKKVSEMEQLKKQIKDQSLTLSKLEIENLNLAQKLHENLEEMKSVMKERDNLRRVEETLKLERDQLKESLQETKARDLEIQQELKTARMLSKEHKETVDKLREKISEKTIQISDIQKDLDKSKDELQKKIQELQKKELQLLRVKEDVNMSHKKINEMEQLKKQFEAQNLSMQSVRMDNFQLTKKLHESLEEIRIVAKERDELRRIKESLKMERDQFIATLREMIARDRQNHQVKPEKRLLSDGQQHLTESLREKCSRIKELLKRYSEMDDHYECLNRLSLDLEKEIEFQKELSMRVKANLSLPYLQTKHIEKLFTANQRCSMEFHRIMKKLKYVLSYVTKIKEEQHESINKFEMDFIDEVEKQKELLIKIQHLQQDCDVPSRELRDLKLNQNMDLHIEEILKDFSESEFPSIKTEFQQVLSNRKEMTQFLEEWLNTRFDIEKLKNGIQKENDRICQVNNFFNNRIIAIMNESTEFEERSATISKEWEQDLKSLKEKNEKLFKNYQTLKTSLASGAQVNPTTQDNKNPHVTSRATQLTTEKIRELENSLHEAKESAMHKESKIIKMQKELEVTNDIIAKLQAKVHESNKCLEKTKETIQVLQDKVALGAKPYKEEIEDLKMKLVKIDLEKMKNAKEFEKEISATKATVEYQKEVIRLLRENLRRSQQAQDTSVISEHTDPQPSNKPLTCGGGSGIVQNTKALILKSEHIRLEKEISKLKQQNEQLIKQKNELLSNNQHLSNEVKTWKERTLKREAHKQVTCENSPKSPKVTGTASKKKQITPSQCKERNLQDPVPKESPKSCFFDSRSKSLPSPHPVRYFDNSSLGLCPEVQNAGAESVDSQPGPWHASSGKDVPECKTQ
UniProt P60953, whole entry, looked up: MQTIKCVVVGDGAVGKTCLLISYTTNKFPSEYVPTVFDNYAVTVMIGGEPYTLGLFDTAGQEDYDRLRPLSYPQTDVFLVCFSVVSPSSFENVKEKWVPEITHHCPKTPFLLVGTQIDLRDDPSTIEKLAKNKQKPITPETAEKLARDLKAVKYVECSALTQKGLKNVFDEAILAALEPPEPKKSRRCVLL
UniProt Q99459: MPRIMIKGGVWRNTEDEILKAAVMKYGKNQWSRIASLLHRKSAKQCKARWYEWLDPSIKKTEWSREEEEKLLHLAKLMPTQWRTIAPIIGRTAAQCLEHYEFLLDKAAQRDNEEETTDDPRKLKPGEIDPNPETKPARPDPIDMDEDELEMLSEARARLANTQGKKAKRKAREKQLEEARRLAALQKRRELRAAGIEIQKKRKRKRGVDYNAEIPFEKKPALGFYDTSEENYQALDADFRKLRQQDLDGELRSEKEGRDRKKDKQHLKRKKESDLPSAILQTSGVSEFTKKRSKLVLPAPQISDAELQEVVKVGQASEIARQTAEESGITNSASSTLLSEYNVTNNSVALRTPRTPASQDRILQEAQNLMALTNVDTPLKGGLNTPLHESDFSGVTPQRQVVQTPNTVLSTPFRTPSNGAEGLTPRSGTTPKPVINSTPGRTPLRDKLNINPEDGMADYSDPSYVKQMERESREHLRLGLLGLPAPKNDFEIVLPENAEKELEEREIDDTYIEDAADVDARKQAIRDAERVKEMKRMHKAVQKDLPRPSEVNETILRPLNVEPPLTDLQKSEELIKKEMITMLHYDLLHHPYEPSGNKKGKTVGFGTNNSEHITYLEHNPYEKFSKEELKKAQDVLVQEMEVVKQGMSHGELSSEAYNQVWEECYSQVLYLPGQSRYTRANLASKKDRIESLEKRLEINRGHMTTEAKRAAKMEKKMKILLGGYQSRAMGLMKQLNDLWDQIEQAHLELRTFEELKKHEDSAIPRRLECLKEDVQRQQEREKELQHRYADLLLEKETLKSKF
UniProt P42773: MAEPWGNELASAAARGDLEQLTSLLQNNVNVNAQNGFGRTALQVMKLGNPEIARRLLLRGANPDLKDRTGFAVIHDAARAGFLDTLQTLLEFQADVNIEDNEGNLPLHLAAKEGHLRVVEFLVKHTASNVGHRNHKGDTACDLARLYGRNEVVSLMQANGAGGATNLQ
UniProt Q16543: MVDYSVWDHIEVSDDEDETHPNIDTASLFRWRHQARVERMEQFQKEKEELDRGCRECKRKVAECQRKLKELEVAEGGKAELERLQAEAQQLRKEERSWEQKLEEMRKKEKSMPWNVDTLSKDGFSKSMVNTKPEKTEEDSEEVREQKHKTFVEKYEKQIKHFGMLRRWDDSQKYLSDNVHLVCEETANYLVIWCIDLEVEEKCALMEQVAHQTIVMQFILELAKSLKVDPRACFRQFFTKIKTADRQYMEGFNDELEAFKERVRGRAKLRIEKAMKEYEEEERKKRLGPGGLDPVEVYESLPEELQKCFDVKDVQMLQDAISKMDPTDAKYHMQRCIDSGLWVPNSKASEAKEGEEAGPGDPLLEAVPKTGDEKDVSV

Some of the results follow.

Common to all, as to assay: log2 fold change, soluble protein after heating vs DMSO (PISA); higher = thermal stabilisation; K562 lysate, 10 uM; active = over 0.2 and 3.5 SD of the protein, either way, in both replicates (recomputed)
Compound in test [1]: NCC(=O)Nc1ccc(-n2nc(C(F)(F)F)cc2-c2ccc3c(ccc4ccccc43)c2)cc1
In a few lines: (§1)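 Values give the log-two fold change in thermal stability against solvent controls, from duplicates. Crude K562 extract at 1 mg/mL protein, made by dounce homogenisation in PBS pH 7.4 with 1 mM MgCl2, was treated with 10 μM compound for 30 min. After 3 min heating across 48°C-58°C, aliquots were pooled, adjusted to 0.5% NP-40 at 4°C and centrifuged at 21,000xg for 90 min. The supernatant was measured by TMTpro 16plex LC-MS/MS with channel sums equalised.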

Compound in a further test: O=C(CCCCCCC(=O)Nc1ccccc1)NO [vorinostat]
In a few lines: as §1

Compound in another test: O=C(O)c1ccc2c(c1)nc(Nc1cccc(Cl)c1)c1ccncc12 [silmitasertib]
In a few lines:
as §1

Compound in test [2]: O=C1NC(=O)C(c2cnc3ccccn23)=C1c1cn2c3c(cc(F)cc13)CN(C(=O)N1CCCCC1)CC2
In a few lines: as §1

Compound in a further test: c1cn2cc(-c3ccc4cn[nH]c4c3)nc(Nc3ccc(N4CCOCC4)cc3)c2n1 [entospletinib]
In a few lines:
as §1

CDC45 isoform 3 (UniProt O75419): the log2 fold change is inactive: -0.021 in test [1]; active: -0.487 with vorinostat; inactive: 0.012 in the test with silmitasertib; inactive: 0.015 in test [2]; inactive: 0.03 with entospletinib.
For CEBPB (UniProt P17676), in that order: inactive: -0.023, inactive: -0.126, inactive: -0.022, inactive: 0.127 and inactive: 0.028.
CFDP1 (UniProt Q9UEE9): the log2 fold change in test [1] is inactive: -0.009; with vorinostat it was inactive: 0.095; with silmitasertib, inactive: -0.05; in test [2] it was inactive: -0.078; with entospletinib it was inactive: -0.012.
In the case of CELF1 isoform 4 (UniProt Q92879), the log2 fold change was inactive: 0.065 in test [1]; active: -0.347 with vorinostat; inactive: 0.019 with silmitasertib; inactive: 0.022 in test [2]; inactive: 0.013 with entospletinib.
For CDC123 (UniProt O75794), in that order: inactive: -0.064, inactive: -0.019, inactive: 0.015, inactive: -0.032 and inactive: 0.043.
As for CEP350 (UniProt Q5VT06), the log2 fold change is inactive: 0.02 in test [1]; inactive: 0.219 in the test with vorinostat; inactive: 0 in the test with silmitasertib; inactive: -0.053 in test [2]; inactive: -0.032 in the test with entospletinib.
With CDR2L (UniProt Q86X02), the log2 fold change in test [1] is inactive: 0.094; with vorinostat, inactive: -0.01; with silmitasertib, inactive: 0.038; in test [2] it was inactive: -0.035; in the test with entospletinib, inactive: 0.004.
For CDR2 (UniProt Q01850), in that order: inactive: 0.089, inactive: -0.066, inactive: -0.011, inactive: -0.02 and inactive: 0.026.
For CDC42BPA isoform 6 (UniProt Q5VT25) the same measures were inactive: -0.008, active: -0.224, inactive: 0.018, inactive: 0.001 and inactive: 0.
Consider CEP55 (UniProt Q53EZ4), for which the log2 fold change was inactive: 0.039 in test [1]; inactive: -0.206 with vorinostat; inactive: -0.002 with silmitasertib; inactive: 0.018 in test [2]; inactive: -0.117 with entospletinib.
As for CENPE (UniProt Q02224), the log2 fold change is inactive: 0.072 in test [1]; inactive: -0.186 with vorinostat; inactive: 0.011 in the test with silmitasertib; inactive: -0.043 in test [2]; inactive: -0.043 with entospletinib.
As for CEPT1 (UniProt Q9Y6K0), the log2 fold change is inactive: -0.037 in test [1]; inactive: 0.103 with vorinostat; inactive: -0.016 with silmitasertib; inactive: 0.029 in test [2]; inactive: -0.016 in the test with entospletinib.
With CEP85 isoform 2 (UniProt Q6P2H3), the log2 fold change in test [1] was inactive: 0.012; with vorinostat, inactive: -0.092; with silmitasertib, inactive: 0.007; in test [2], inactive: 0.056; with entospletinib, inactive: -0.002.
Consider CETN2 (UniProt P41208), for which the log2 fold change in test [1] is inactive: 0.047; with vorinostat, inactive: 0.009; with silmitasertib, inactive: -0.037; in test [2] it was inactive: -0.071; with entospletinib it was inactive: 0.
For the target CDC42 isoform 1 (UniProt P60953), the log2 fold change in test [1] was inactive: 0.029; with vorinostat it was inactive: 0.076; in the test with silmitasertib, inactive: 0.006; in test [2], inactive: -0.068; in the test with entospletinib, inactive: -0.031.
For CDC5L (UniProt Q99459) the same measures were inactive: 0.008, inactive: -0.053, inactive: 0.007, inactive: -0.002 and inactive: 0.017.
With CDC40 (UniProt O60508), the log2 fold change in test [1] is inactive: 0.029; with vorinostat, inactive: 0.08; in the test with silmitasertib it was inactive: 0.015; in test [2], inactive: 0.005; with entospletinib, inactive: 0.014.
Regarding CDK11B (UniProt P21127), the log2 fold change was inactive: 0.009 in test [1]; inactive: -0.115 with vorinostat; inactive: 0.065 with silmitasertib; inactive: -0.023 in test [2]; active: 0.255 with entospletinib.
For CDKN2C (UniProt P42773) the same measures were inactive: -0.062, inactive: 0.119, inactive: 0.01, inactive: 0.045 and inactive: -0.113.
CEMIP2 (UniProt Q9UHN6): the log2 fold change in test [1] was inactive: -0.125; with vorinostat it was inactive: 0.153; with silmitasertib it was inactive: -0.013; in test [2], inactive: -0.006; with entospletinib, inactive: 0.017.
For CEP170 (UniProt Q5SW79) the same measures were inactive: 0.051, inactive: -0.018, inactive: -0.088, inactive: -0.035 and inactive: -0.126.
For CDV3 (UniProt Q9UKY7), in that order: inactive: -0.051, inactive: 0.122, inactive: -0.034, inactive: 0.001 and inactive: 0.039.
On to CFH (UniProt P08603), for which the log2 fold change was inactive: 0.005 in test [1]; inactive: 0.149 with vorinostat; inactive: -0.045 with silmitasertib; inactive: 0.039 in test [2]; inactive: -0.03 with entospletinib.
In the case of CDC37 (UniProt Q16543), the log2 fold change in test [1] is inactive: 0.012; with vorinostat, inactive: 0.099; with silmitasertib, inactive: -0.002; in test [2], inactive: 0.003; in the test with entospletinib, inactive: -0.004.
